Measured values published in the supplement of paper PMC12823440, “Inhibitors supercharge kinase turnover through native proteolytic circuits” (Nature, 2025).
The list shows a part of the results. The calls rarely recur for the same compound in another form.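 Kinases were expressed as nanoluciferase fusions in K562 cells and luminescence was read every 4 h between 2 and 18 h as percent of control, DMSO set to 100% and a positive control to 0%. A time point counts as decreased when the signal drops significantly (2 sigma). The hit call is the authors' own, does not follow from the count of time points alone, and its rule is not shown.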

The chains behind the UniProt entries cited, without tags or fusion partners. Where a name states a change or a piece, a line headed by the entry shows the natural chain unless it says otherwise.
UniProt Q9Y616: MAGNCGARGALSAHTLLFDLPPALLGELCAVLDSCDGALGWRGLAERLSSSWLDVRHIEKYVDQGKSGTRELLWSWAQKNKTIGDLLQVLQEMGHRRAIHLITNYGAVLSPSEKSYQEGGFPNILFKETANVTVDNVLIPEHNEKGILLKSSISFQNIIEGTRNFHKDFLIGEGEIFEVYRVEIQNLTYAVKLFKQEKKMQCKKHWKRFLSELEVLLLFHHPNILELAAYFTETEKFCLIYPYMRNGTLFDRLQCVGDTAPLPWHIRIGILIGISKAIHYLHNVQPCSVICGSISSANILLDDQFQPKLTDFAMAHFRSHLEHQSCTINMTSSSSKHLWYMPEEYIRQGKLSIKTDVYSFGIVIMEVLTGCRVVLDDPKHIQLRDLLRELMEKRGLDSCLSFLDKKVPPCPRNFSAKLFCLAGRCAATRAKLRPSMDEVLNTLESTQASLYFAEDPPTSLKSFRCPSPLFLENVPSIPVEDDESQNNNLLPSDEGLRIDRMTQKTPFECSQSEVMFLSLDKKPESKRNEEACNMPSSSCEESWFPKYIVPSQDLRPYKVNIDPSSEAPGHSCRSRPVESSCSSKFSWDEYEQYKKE
UniProt P06239: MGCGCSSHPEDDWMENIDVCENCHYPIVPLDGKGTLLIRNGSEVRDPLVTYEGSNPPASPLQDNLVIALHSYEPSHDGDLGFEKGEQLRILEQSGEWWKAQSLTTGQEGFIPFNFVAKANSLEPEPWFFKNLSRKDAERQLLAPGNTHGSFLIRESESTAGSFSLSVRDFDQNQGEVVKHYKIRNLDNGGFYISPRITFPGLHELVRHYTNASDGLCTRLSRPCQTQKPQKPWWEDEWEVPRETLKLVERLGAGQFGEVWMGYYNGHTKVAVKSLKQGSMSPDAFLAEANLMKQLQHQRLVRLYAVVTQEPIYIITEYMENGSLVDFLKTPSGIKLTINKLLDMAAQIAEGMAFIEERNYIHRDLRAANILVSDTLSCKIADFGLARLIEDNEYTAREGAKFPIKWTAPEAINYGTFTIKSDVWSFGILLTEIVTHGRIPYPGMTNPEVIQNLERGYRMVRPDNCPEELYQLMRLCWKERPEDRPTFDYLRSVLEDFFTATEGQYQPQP
UniProt P53667: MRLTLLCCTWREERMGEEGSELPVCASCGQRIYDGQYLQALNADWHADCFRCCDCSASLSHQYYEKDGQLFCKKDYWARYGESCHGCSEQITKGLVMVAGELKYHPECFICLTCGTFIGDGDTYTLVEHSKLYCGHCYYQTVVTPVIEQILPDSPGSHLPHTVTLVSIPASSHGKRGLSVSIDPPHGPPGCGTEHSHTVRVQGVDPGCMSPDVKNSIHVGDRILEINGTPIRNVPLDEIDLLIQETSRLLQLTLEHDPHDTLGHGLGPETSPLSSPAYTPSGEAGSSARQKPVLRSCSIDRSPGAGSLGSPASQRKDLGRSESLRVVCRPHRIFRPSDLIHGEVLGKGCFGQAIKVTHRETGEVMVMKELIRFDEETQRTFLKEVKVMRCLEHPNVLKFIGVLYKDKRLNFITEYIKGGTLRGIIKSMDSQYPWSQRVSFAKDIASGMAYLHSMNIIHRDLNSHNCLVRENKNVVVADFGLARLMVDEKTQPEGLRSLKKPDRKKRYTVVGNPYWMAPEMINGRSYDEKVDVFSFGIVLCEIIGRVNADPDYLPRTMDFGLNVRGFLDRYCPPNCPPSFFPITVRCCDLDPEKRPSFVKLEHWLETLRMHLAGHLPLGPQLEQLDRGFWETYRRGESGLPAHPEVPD
UniProt P53671: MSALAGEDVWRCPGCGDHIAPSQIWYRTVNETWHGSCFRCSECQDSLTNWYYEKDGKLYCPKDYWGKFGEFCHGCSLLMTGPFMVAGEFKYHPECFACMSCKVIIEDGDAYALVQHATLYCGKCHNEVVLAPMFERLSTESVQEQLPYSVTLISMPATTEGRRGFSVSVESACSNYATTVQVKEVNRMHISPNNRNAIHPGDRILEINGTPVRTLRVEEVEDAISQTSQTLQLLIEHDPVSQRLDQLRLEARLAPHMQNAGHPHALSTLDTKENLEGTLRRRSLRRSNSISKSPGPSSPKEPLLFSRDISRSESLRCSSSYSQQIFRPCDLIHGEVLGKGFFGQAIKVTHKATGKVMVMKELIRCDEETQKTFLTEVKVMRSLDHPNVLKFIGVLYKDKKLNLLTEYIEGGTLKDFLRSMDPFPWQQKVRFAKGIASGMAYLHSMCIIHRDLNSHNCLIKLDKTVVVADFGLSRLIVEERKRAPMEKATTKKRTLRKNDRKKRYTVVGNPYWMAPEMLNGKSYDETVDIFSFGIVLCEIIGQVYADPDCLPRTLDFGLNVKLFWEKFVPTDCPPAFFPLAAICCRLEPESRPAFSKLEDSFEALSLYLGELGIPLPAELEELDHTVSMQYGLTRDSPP
UniProt Q8IWU2: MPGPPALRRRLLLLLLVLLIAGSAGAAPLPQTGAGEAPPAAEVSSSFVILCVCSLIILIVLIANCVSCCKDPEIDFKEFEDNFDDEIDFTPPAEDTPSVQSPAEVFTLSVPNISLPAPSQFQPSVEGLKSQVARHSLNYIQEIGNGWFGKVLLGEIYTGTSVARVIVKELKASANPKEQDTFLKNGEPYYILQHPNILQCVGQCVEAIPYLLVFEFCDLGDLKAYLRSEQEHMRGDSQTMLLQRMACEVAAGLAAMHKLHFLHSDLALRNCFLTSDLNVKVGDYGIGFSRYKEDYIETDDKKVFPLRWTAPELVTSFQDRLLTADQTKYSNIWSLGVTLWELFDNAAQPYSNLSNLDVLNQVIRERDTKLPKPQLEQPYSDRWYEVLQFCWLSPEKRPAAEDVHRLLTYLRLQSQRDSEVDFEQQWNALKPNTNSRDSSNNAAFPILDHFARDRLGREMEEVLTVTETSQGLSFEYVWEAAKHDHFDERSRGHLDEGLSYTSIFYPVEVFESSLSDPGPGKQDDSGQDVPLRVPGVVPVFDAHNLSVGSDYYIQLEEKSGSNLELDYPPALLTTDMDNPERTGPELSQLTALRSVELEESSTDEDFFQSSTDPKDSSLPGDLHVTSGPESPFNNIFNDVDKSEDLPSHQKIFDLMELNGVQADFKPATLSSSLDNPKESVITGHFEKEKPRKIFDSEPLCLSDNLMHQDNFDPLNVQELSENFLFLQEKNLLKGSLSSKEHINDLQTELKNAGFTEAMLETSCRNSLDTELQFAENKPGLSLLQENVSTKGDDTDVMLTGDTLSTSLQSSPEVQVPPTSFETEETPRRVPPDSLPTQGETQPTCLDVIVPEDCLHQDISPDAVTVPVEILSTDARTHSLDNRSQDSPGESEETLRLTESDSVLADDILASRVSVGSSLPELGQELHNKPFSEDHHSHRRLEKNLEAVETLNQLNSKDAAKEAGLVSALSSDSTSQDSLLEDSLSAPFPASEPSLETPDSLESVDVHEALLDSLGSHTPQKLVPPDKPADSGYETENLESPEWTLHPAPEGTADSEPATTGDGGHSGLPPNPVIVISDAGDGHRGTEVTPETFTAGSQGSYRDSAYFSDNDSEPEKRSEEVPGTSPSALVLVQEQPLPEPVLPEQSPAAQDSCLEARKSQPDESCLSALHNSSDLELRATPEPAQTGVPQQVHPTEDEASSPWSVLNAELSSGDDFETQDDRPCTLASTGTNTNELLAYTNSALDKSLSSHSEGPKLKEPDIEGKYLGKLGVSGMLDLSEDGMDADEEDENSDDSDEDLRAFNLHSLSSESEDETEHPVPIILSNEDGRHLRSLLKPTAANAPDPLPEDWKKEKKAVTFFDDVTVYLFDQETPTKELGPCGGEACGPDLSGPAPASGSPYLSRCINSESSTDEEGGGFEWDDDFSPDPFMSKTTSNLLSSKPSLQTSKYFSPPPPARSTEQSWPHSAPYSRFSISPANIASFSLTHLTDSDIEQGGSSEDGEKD
UniProt P07948: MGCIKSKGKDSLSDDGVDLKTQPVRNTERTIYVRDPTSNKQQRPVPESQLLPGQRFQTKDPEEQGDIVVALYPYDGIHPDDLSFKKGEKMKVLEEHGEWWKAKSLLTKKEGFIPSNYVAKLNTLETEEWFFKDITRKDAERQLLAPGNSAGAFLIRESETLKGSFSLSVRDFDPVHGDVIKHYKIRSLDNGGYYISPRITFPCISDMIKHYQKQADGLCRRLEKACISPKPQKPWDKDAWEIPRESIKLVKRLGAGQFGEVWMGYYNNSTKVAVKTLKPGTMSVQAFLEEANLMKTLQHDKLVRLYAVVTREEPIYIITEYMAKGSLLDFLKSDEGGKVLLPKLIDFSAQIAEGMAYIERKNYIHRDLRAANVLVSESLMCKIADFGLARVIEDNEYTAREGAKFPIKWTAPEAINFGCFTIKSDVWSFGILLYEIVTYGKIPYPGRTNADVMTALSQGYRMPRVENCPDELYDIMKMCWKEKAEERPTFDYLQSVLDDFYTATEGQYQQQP
UniProt P28482, whole entry: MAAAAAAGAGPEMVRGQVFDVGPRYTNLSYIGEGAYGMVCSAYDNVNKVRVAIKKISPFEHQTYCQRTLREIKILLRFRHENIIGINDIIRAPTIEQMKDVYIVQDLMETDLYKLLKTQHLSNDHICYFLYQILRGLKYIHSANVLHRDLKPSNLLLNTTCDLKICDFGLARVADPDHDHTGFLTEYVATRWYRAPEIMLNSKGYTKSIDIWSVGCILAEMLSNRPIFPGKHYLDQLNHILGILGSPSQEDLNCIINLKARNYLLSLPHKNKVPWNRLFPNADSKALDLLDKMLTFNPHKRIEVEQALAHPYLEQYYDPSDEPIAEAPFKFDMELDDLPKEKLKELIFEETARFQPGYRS
UniProt P31152, whole entry: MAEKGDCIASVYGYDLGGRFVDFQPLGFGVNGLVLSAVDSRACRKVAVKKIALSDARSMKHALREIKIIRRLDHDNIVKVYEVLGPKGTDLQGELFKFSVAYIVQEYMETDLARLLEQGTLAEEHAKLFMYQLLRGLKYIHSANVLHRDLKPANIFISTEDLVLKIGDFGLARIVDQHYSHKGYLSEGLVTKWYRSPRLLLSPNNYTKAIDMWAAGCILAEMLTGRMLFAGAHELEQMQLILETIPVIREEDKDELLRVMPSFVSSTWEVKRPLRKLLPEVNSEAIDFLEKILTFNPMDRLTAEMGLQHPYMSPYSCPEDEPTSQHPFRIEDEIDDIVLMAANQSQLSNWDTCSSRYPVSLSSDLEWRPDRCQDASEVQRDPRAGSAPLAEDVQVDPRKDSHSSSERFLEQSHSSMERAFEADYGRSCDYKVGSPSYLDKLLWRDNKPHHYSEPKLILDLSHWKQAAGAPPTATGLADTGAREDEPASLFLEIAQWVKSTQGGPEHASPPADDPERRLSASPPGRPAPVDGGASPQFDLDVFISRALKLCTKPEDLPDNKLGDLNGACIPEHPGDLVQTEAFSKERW
UniProt P49137, whole entry, looked up: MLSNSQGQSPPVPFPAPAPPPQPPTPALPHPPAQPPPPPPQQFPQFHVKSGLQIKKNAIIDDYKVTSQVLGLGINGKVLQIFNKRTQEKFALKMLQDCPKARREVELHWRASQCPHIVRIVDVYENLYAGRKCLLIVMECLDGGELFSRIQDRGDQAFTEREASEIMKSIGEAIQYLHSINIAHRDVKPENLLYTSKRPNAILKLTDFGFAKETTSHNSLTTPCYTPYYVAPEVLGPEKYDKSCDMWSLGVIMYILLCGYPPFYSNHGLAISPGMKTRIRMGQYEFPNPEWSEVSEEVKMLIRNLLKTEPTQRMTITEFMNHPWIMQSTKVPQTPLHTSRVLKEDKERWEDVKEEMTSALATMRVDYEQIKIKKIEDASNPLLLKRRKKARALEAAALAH
UniProt O96013: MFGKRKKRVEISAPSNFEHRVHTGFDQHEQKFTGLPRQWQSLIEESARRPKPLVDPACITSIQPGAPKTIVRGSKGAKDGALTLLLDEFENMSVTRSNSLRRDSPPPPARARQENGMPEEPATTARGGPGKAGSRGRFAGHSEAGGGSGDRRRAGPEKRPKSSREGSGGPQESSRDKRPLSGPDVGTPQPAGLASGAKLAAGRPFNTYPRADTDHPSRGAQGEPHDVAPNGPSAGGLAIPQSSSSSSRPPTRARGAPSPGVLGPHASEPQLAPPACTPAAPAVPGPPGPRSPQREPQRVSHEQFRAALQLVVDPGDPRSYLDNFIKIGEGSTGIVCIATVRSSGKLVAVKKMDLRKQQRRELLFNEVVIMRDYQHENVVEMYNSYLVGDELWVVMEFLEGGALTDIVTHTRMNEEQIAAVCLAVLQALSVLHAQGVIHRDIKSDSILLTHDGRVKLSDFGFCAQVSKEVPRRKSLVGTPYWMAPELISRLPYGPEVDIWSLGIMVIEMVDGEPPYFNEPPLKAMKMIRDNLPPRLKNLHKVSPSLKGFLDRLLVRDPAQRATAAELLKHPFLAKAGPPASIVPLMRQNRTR

Tests used:
Experiment in all cases: kinase-Nluc reporter destabilization hit call (1 = scored as downregulated) (binary); higher = compound decreases kinase abundance
Settings in all cases: K562; 2-18 h
IRAK3 = IRAK3 (UniProt Q9Y616)
JAK1 = JAK1 (UniProt P23458)
LCK = LCK (UniProt P06239)
LIMK1 = LIMK1 (UniProt P53667)
LIMK2 = LIMK2 (UniProt P53671)
LMTK2 = LMTK2 (UniProt Q8IWU2)
LYN = LYN (UniProt P07948)
MAP2K1 = MAP2K1 (UniProt Q02750)
MAP2K2 = MAP2K2 (UniProt P36507)
MAP4K2 = MAP4K2 (UniProt Q12851)
MAPK1 = MAPK1 (UniProt P28482)
MAPK4 = MAPK4 (UniProt P31152)
MAPKAPK2 = MAPKAPK2 (UniProt P49137)
MKNK1 = MKNK1 (UniProt Q9BUB5)
NTRK2 = NTRK2 (UniProt Q16620)
NTRK3 = NTRK3 (UniProt Q16288)
PAK4 = PAK4 (UniProt O96013)
PBK = PBK (UniProt Q96KB5)
PDGFRB = PDGFRB (UniProt P09619)
PDK1 = PDK1 (UniProt Q15118)

Measured: kinase-Nluc reporter destabilization hit call

N#CC(C#N)=Cc1ccc(O)c(O)c1 [Tyrphostin 23] (10 µM)
inactive: IRAK3 = 0 | JAK1 = 0 | LCK 0 | LIMK1 = 0 | LIMK2 = 0 | LMTK2 = 0 | LYN 0 | MAP2K1 = 0 | MAP2K2 = 0 | MAP4K2 = 0 | MAPK1 = 0 | MAPK4 = 0 | MAPKAPK2 = 0 | MKNK1 = 0 | NTRK2 = 0 | NTRK3 = 0 | PAK4 = 0 | PBK 0 | PDGFRB 0 | PDK1 = 0

C=CC(=O)N[C@H]1C=C(C)c2c(-c3cnc4ccccc4c3)c3c(N)ncnc3n2C1 (10 µM)
inactive: IRAK3 = 0 | JAK1 = 0 | LCK 0 | LIMK1 = 0 | LIMK2 = 0 | LMTK2 = 0 | LYN 0 | MAP2K1 = 0 | MAP2K2 = 0 | MAP4K2 = 0 | MAPK1 = 0 | MAPK4 = 0 | MAPKAPK2 = 0 | MKNK1 = 0 | NTRK2 = 0 | NTRK3 = 0 | PAK4 = 0 | PBK 0 | PDGFRB 0 | PDK1 = 0

COc1ccc(/C=C/c2cc(OC)c(OC)c(OC)c2)cc1 (2.5 µM)
inactive: IRAK3 = 0 | JAK1 = 0 | LCK 0 | LIMK1 = 0 | LIMK2 = 0 | LMTK2 = 0 | LYN 0 | MAP2K1 = 0 | MAP2K2 = 0 | MAP4K2 = 0 | MAPK1 = 0 | MAPK4 = 0 | MAPKAPK2 = 0 | MKNK1 = 0 | NTRK3 = 0 | PAK4 = 0 | PBK 0 | PDGFRB 0 | PDK1 = 0

COc1ccc2c(c1)/C(=C/c1cnc[nH]1)C(=O)N2 (2.5 µM)
inactive: IRAK3 = 0 | JAK1 = 0 | LCK 0 | LIMK1 = 0 | LIMK2 = 0 | LMTK2 = 0 | LYN 0 | MAP2K1 = 0 | MAP2K2 = 0 | MAP4K2 = 0 | MAPK1 = 0 | MAPK4 = 0 | MAPKAPK2 = 0 | MKNK1 = 0 | NTRK2 = 0 | NTRK3 = 0 | PAK4 = 0 | PBK 0 | PDK1 = 0

Reprinted at random: two compounds from above
N#CC(C#N)=Cc1ccc(O)c(O)c1 [Tyrphostin 23] (10 µM)
inactive: IRAK3 = 0 | JAK1 = 0 | LCK 0 | LIMK1 = 0 | LIMK2 = 0 | LMTK2 = 0 | LYN 0 | MAP2K1 = 0 | MAP2K2 = 0 | MAP4K2 = 0 | MAPK1 = 0 | MAPK4 = 0 | MAPKAPK2 = 0 | MKNK1 = 0 | NTRK2 = 0 | NTRK3 = 0 | PAK4 = 0 | PBK 0 | PDGFRB 0 | PDK1 = 0

COc1ccc2c(c1)/C(=C/c1cnc[nH]1)C(=O)N2 (2.5 µM)
inactive: IRAK3 = 0 | JAK1 = 0 | LCK 0 | LIMK1 = 0 | LIMK2 = 0 | LMTK2 = 0 | LYN 0 | MAP2K1 = 0 | MAP2K2 = 0 | MAP4K2 = 0 | MAPK1 = 0 | MAPK4 = 0 | MAPKAPK2 = 0 | MKNK1 = 0 | NTRK2 = 0 | NTRK3 = 0 | PAK4 = 0 | PBK 0 | PDK1 = 0

(continued)

O=C(/C=C/c1ccccc1)OC[C@H]1O[C@@H](O[C@@H]2OC=C[C@H]3[C@H](O)[C@@H]4O[C@]4(CO)[C@@H]23)[C@H](O)[C@@H](O)[C@@H]1O [Picroside I] (10 µM)
inactive: IRAK3 = 0 | JAK1 = 0 | LCK 0 | LIMK1 = 0 | LIMK2 = 0 | LMTK2 = 0 | LYN 0 | MAP2K1 = 0 | MAP2K2 = 0 | MAP4K2 = 0 | MAPK1 = 0 | MAPK4 = 0 | MAPKAPK2 = 0 | MKNK1 = 0 | NTRK2 = 0 | NTRK3 = 0 | PAK4 = 0 | PBK 0 | PDGFRB 0 | PDK1 = 0

C/C=C(/C)C(=O)O[C@H]1[C@@H]2[C@H](C)C(=O)O[C@@H]2C[C@@H](C)[C@@H]2C=CC(=O)[C@]21C [Brevilin A] (2.5 µM)
inactive: IRAK3 = 0 | JAK1 = 0 | LCK 0 | LIMK1 = 0 | LIMK2 = 0 | LMTK2 = 0 | LYN 0 | MAP2K1 = 0 | MAP2K2 = 0 | MAP4K2 = 0 | MAPK1 = 0 | MAPK4 = 0 | MAPKAPK2 = 0 | MKNK1 = 0 | NTRK2 = 0 | NTRK3 = 0 | PAK4 = 0 | PBK 0 | PDGFRB 0 | PDK1 = 0

O=c1cc(O)c2ccccc2o1 [4-Hydroxycoumarin] (10 µM)
inactive: IRAK3 = 0 | JAK1 = 0 | LCK 0 | LIMK1 = 0 | LIMK2 = 0 | LMTK2 = 0 | LYN 0 | MAP2K1 = 0 | MAP2K2 = 0 | MAP4K2 = 0 | MAPK1 = 0 | MAPK4 = 0 | MAPKAPK2 = 0 | MKNK1 = 0 | NTRK2 = 0 | NTRK3 = 0 | PAK4 = 0 | PBK 0 | PDGFRB 0 | PDK1 = 0

CC(=O)Oc1ccc(/C=C/c2cc(OC(C)=O)cc(OC(C)=O)c2)cc1 [Triacetylresveratrol] (10 µM)
inactive: IRAK3 = 0 | JAK1 = 0 | LCK 0 | LIMK1 = 0 | LIMK2 = 0 | LMTK2 = 0 | LYN 0 | MAP2K1 = 0 | MAP2K2 = 0 | MAP4K2 = 0 | MAPK1 = 0 | MAPK4 = 0 | MAPKAPK2 = 0 | MKNK1 = 0 | NTRK2 = 0 | NTRK3 = 0 | PAK4 = 0 | PBK 0 | PDGFRB 0 | PDK1 = 0

CC(C)(C)c1cc(C=C(C#N)C#N)cc(Br)c1O (2.5 µM)
inactive: IRAK3 = 0 | JAK1 = 0 | LCK 0 | LIMK1 = 0 | LIMK2 = 0 | LMTK2 = 0 | LYN 0 | MAP2K1 = 0 | MAP2K2 = 0 | MAP4K2 = 0 | MAPK1 = 0 | MAPK4 = 0 | MAPKAPK2 = 0 | MKNK1 = 0 | NTRK2 = 0 | NTRK3 = 0 | PAK4 = 0 | PBK 0 | PDGFRB 0 | PDK1 = 0

N#CC(C#N)=NNc1cccc(Cl)c1 (2.5 µM)
inactive: IRAK3 = 0 | JAK1 = 0 | LCK 0 | LIMK1 = 0 | LIMK2 = 0 | LMTK2 = 0 | LYN 0 | MAP2K1 = 0 | MAP2K2 = 0 | MAP4K2 = 0 | MAPK1 = 0 | MAPK4 = 0 | MAPKAPK2 = 0 | MKNK1 = 0 | NTRK2 = 0 | NTRK3 = 0 | PAK4 = 0 | PBK 0 | PDGFRB 0 | PDK1 = 0

COC[C@H]1OC(=O)c2coc3c2[C@@]1(C)C1=C(C3=O)[C@@H]2CCC(=O)[C@@]2(C)C[C@H]1OC(C)=O [Wortmannin] (2.5 µM)
inactive: IRAK3 = 0 | JAK1 = 0 | LCK 0 | LIMK1 = 0 | LIMK2 = 0 | LMTK2 = 0 | LYN 0 | MAP2K1 = 0 | MAP2K2 = 0 | MAP4K2 = 0 | MAPK1 = 0 | MAPK4 = 0 | MAPKAPK2 = 0 | MKNK1 = 0 | NTRK2 = 0 | NTRK3 = 0 | PAK4 = 0 | PBK 0 | PDGFRB 0 | PDK1 = 0
